# Laboratory results taken from doi:10.1101/2024.03.19.585677.
# The exact form of at least one protein or probe is not confirmed. A negative result means that nothing was seen under these conditions.
# Biological target: PSB15 WT (Xanthomonas phage phiLf-UK) (UniProt Q8P905)
# Assay: EMSA
row,Sequence,binding result
1,TTTTTTTTTTTTTTTTTTTTTTTTT [poly(T)25],no binding
2,AAAAAAAAAAAAAAAAAAAAAAAAA [poly(A)25],no binding
